Measured data: PubChem BioAssay AID1224826 (NIAID, 2016)

- Aim: 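Regulators of Tlr4 signalling leading to Tnf-alpha expression in macrophages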 (primary screen)
- Cell system: RAW264.7 G9 macrophages from mouse bearing reporters for p65 (GFP) and the Tnf promoter (mCherry)
- Knock-down reagent: siRNA pool against mouse genes, 100 nM
- Timing: 16 h of LPS stimulation, after 2 days of siRNA transfection
- Conditions: bacterial lipopolysaccharide (Salmonella minnesota R595), 10 ng/ml
- Detection: 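Imaged Tnf reporter mCherry in nuclei, minus background, normalised per plate to the median and expressed as robust z-scores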
- Reading the numbers: Tnf reporter robust z-score: higher = stronger Tnf promoter reporter signal after LPS; Tnf reporter intensity: higher = stronger Tnf promoter reporter signal
- Hit rule: 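a well counts as active at a score of -1.3 or below (Tlr4 knock-down control median) or above 3 (raised signal); controls and wells holding fewer than 50 cells are excluded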
- Calls: active = Tnf reporter clearly lowered or raised; inactive = no clear change in Tnf reporter
The whole screen tested about 17,000 reagents; this is an unselected part. In the full data, about 1,110 (6.6%) are marked active. 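Active means lowered or raised reporter signal; replicate intensities are raw and not normalised per plate.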 No sequences are given here.

| Target gene | PubChem SID | Tnf reporter robust z-score | fewer than 50 cells in well | Tnf reporter intensity, replicate 1 | Tnf reporter intensity, replicate 2 | call |
| --- | --- | --- | --- | --- | --- | --- |
| Cenpu (GeneID 71876) | SID315474359 | – | fewer than 50 cells per well; well left out of calls | 67 | 73 | inactive |
| Ddi2 (GeneID 68817) | SID315473953 | 1.15 | enough cells in well | 341 | 97.8 | inactive |
| Sgpl1 (GeneID 20397) | SID315469208 | 0.74 | enough cells in well | 130 | 123 | inactive |
| Rabl2 (GeneID 68708) | SID315473609 | -0.1 | enough cells in well | 323 | 182 | inactive |
| Evx2 (GeneID 14029) | SID315466586 | -0.7 | enough cells in well | 181 | 109 | inactive |
| Arhgap1 (GeneID 228359) | SID315478626 | – | fewer than 50 cells per well; well left out of calls | 61.2 | 53.2 | inactive |
| Psmg3 (GeneID 66506) | SID315472482 | 2.01 | enough cells in well | 248 | 109 | inactive |
| Rpl22 (GeneID 19934) | SID315469012 | -1.17 | enough cells in well | 81 | 73.9 | inactive |
| Or51g1 (GeneID 259119) | SID315480713 | – | fewer than 50 cells per well; well left out of calls | 12.6 | 68.7 | inactive |
| Vmn1r72 (GeneID 252905) | SID315479912 | -0.04 | enough cells in well | 98.4 | 104 | inactive |
| Celf1 (GeneID 13046) | SID315466202 | 0.16 | enough cells in well | 273 | 189 | inactive |
| Dnajb2 (GeneID 56812) | SID315471694 | 0.99 | enough cells in well | 216 | 175 | inactive |
| Mrps18a (GeneID 68565) | SID315473569 | -1.84 | enough cells in well | 109 | 27.3 | active |
| Adarb1 (GeneID 110532) | SID315476912 | -0.7 | enough cells in well | 148 | 152 | inactive |
| Vps18 (GeneID 228545) | SID315478637 | -0.15 | enough cells in well | 113 | 103 | inactive |
| Ripor2 (GeneID 193385) | SID315477435 | -0.69 | enough cells in well | 156 | 93.4 | inactive |
| Opn3 (GeneID 13603) | SID315466428 | 0.91 | enough cells in well | 412 | 99.4 | inactive |
| Flt3 (GeneID 14255) | SID315466720 | 0.48 | enough cells in well | 269 | 148 | inactive |
| Snapin (GeneID 20615) | SID315469353 | – | fewer than 50 cells per well; well left out of calls | 69.2 | 75.1 | inactive |
| Taar2 (GeneID 209512) | SID315477602 | 0.1 | enough cells in well | 250 | 256 | inactive |
| A430072C10Rik (GeneID 319637) | SID315481138 | – | fewer than 50 cells per well; well left out of calls | 184 | 154 | inactive |
| Lin9 (GeneID 72568) | SID315474580 | -0.17 | enough cells in well | 241 | 64.4 | inactive |
| Or51a8 (GeneID 259114) | SID315480708 | – | fewer than 50 cells per well; well left out of calls | 54.6 | 73.7 | inactive |
| Tm6sf2 (GeneID 107770) | SID315476641 | 0.58 | enough cells in well | 113 | 135 | inactive |
| A330008L17Rik (GeneID 234624) | SID315479175 | -0.48 | enough cells in well | 144 | 128 | inactive |
| Arl4c (GeneID 320982) | SID315481429 | 0.64 | enough cells in well | 229 | 163 | inactive |

Next part (7 carried over from the part before).
| Target gene | PubChem SID | Tnf reporter robust z-score | fewer than 50 cells in well | Tnf reporter intensity, replicate 1 | Tnf reporter intensity, replicate 2 | call |
| --- | --- | --- | --- | --- | --- | --- |
| Taar2 (GeneID 209512) | SID315477602 | 0.1 | enough cells in well | 250 | 256 | inactive |
| A430072C10Rik (GeneID 319637) | SID315481138 | – | fewer than 50 cells per well; well left out of calls | 184 | 154 | inactive |
| Lin9 (GeneID 72568) | SID315474580 | -0.17 | enough cells in well | 241 | 64.4 | inactive |
| Or51a8 (GeneID 259114) | SID315480708 | – | fewer than 50 cells per well; well left out of calls | 54.6 | 73.7 | inactive |
| Tm6sf2 (GeneID 107770) | SID315476641 | 0.58 | enough cells in well | 113 | 135 | inactive |
| A330008L17Rik (GeneID 234624) | SID315479175 | -0.48 | enough cells in well | 144 | 128 | inactive |
| Arl4c (GeneID 320982) | SID315481429 | 0.64 | enough cells in well | 229 | 163 | inactive |
| Prss3b (GeneID 67373) | SID315472983 | 0.42 | enough cells in well | 212 | 144 | inactive |
| Hrh2 (GeneID 15466) | SID315467298 | -0.03 | enough cells in well | 159 | 386 | inactive |
| Tph2 (GeneID 216343) | SID315477993 | – | fewer than 50 cells per well; well left out of calls | 62.4 | 73.2 | inactive |
| Cfap100 (GeneID 243538) | SID315479691 | – | fewer than 50 cells per well; well left out of calls | 185 | 113 | inactive |
| Slc25a21 (GeneID 217593) | SID315478132 | 1.25 | enough cells in well | 126 | 163 | inactive |
| Sp1 (GeneID 20683) | SID315469395 | -0.33 | enough cells in well | 282 | 162 | inactive |
| Or10a3b (GeneID 258720) | SID315480370 | -1.22 | enough cells in well | 68.1 | 55.9 | inactive |
| Cdk5rap3 (GeneID 80280) | SID315475685 | 1.56 | enough cells in well | 309 | 233 | inactive |
| Tepsin (GeneID 78777) | SID315475614 | – | fewer than 50 cells per well; well left out of calls | 45.6 | 23.1 | inactive |
| Ppl (GeneID 19041) | SID315468656 | -1.61 | enough cells in well | 64.6 | 43.7 | active |
| Dlx3 (GeneID 13393) | SID315466338 | -0.72 | enough cells in well | 158 | 173 | inactive |
| Cyp4b1 (GeneID 13120) | SID315466249 | 1.96 | enough cells in well | 334 | 264 | inactive |
| Nasp (GeneID 50927) | SID315470887 | -0.98 | enough cells in well | 103 | 98 | inactive |
| Hsd17b4 (GeneID 15488) | SID315467312 | 0.55 | enough cells in well | 256 | 246 | inactive |
| Ppp1r1a (GeneID 58200) | SID315471868 | 1.73 | enough cells in well | 373 | 319 | inactive |
| Arhgef7 (GeneID 54126) | SID315471150 | -0.82 | enough cells in well | 111 | 135 | inactive |
| Cfap74 (GeneID 544678) | SID315481972 | – | fewer than 50 cells per well; well left out of calls | 80.8 | 88.4 | inactive |
| Egr2 (GeneID 13654) | SID315466462 | -0.69 | enough cells in well | 191 | 160 | inactive |
| Sncb (GeneID 104069) | SID315476409 | – | fewer than 50 cells per well; well left out of calls | 41.8 | 25.3 | inactive |
| Zfp947 (GeneID 210853) | SID315477658 | 1.78 | enough cells in well | 330 | 258 | inactive |
| Tnfrsf10b (GeneID 21933) | SID315469763 | 1.2 | enough cells in well | 244 | 196 | inactive |
| Zik1 (GeneID 22775) | SID315470152 | 1.46 | enough cells in well | 170 | 204 | inactive |
| Lrit1 (GeneID 239037) | SID315479415 | -0.14 | enough cells in well | 177 | 143 | inactive |
| Psmb4 (GeneID 19172) | SID315468740 | 0.27 | enough cells in well | 267 | 211 | inactive |
| Gria4 (GeneID 14802) | SID315467026 | -0.69 | enough cells in well | 209 | 170 | inactive |
| Ppef2 (GeneID 19023) | SID315468650 | -0.59 | enough cells in well | 209 | 144 | inactive |
| Rpl21 (GeneID 19933) | SID315469011 | -0.19 | enough cells in well | 118 | 122 | inactive |
| Snx9 (GeneID 66616) | SID315472543 | -0.11 | enough cells in well | 307 | 174 | inactive |
| Slc26a5 (GeneID 80979) | SID315475764 | 1.95 | enough cells in well | 221 | 209 | inactive |
| Xrcc6 (GeneID 14375) | SID315466782 | -0.23 | enough cells in well | 248 | 207 | inactive |
| Thap2 (GeneID 66816) | SID315472652 | 1.42 | enough cells in well | 289 | 256 | inactive |
| Fam135b (GeneID 70363) | SID315474026 | 1.39 | enough cells in well | 283 | 136 | inactive |
| Fam135b (GeneID 70363) | SID315474027 | -1.29 | enough cells in well | 105 | 76.8 | inactive |
